# From the supplement of paper PMC8728848
# This is one part of the list.
# What was measured:
# Test in all cases: glycan array binding signal (z-score within array); higher = stronger binding
# Conditions in all cases: glycan notation: IUPAC condensed, linker removed
# [1] = biological target: Gal(b1-4)GlcNAc(b1-3)Gal(b1-4)GlcNAc(b1-6)[Gal(b1-3)]GalNAc
# In short: (§1)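 Arrays were curated from the Consortium for Functional Glycomics database, 3228 in total, and kept only where the protein sequence was available. Binding is expressed as a within-array Z-score. This score was averaged across arrays of the same protein sequence at different concentrations or buffers and across linkers, and negative values can be read as non-binding.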
# [2] = biological target: Gal(b1-4)GlcNAc(b1-3)Gal(b1-4)[Fuc(a1-3)]GlcNAc(b1-3)Gal(b1-4)[Fuc(a1-3)]GlcNAc
# In short: as §1
# [3] = biological target: Gal(b1-4)GlcNAc(b1-3)GalNAc
# In short: as §1
# [4] = biological target: Gal(b1-4)GlcNAc(b1-3)[Fuc(a1-3)GlcNAc(b1-6)]Gal(b1-4)Glc
# In short: as §1
# [5] = biological target: Gal(b1-4)GlcNAc(b1-3)[Gal(b1-4)GlcNAc(b1-6)]Gal(b1-4)GlcNAc
# In short: as §1
# [6] = biological target: Gal(b1-4)GlcNAc(b1-3)[GlcNAc(b1-6)]Gal(b1-4)GlcNAc
# In short: as §1
# [7] = biological target: Gal(b1-4)GlcNAc(b1-6)Gal(b1-4)GlcNAc
# In short: as §1
# [8] = biological target: Gal(b1-4)GlcNAc(b1-6)GalNAc
# In short: as §1
# [9] = biological target: Gal(b1-4)GlcNAc(b1-6)[Gal(b1-3)]GalNAc
# In short: as §1
# [10] = biological target: Gal(b1-4)GlcNAc(b1-6)[Gal(b1-4)GlcNAc(b1-3)]GalNAc
# In short: as §1
# Gal(b1-4)GlcNAc6P = biological target: Gal(b1-4)GlcNAc6P
# In short: as §1
# Gal(b1-6)Gal = biological target: Gal(b1-6)Gal
# In short: as §1
# Gal3S(b1-3)GalNAc = biological target: Gal3S(b1-3)GalNAc
# In short: as §1
# Gal3S(b1-3)GlcNAc = biological target: Gal3S(b1-3)GlcNAc
# In short: as §1
# [11] = biological target: Gal3S(b1-3)[Fuc(a1-4)]GlcNAc
# In short: as §1
binder,measurement,setting,value
"Awp3 (Candida glabrata), B4UN32 (protein) MISFVTLLAILGLLSISWADQTVRSVAGDQRVTDPVIVGDNSILDYYGGSNYDFSNNFEIGRGTLYIGKESYFSSFQSAPTDVPNSFHLLIKNTNNLQNNGQFIIENIKRHANQCSNSSIQVFPINFQNDGEFEIISGGVEGRCCLPTSVIAPQNFLNNGKFYYKVLTDTGSIYSGSCMQNVDIGASTTTTVNNNLWEFTGSINAQINGAVSGAAQINLDGSNMFVNANTFSGQVVNLINGGSFLQTSDPLSNIVVINGLGTSDTGVTSIAVKGKGKSFTYNPSSGIVKLTTVEGKTYAYQIGCGYNTKKFITNNDSGASYESADNFFVLTYSEPYSPQTCQLENSSIFSSNFISTSTSSSSSSSSASSLPSSMSSSLPSSLSSSLSSSLSSSMSSSMSSLFIIPPPYTTTRSSGSSIIDTEIVSFYSTTDSPGHTITGTTTTTLYGPHTHSSVSTPSSSSESSTTSNSSIESSSLPHTSVSSTPESSITPSSNTISSSPTSDFSSVQSSSIMESSSVVASSSVINSSSIVDSSSSSASSLPSSMSSSLSSSMSSSLPSSMSSSLSSSLSSSLSSSMSSSMSSLFIIPPPYTTTRSSGSSIIDTEIVSFYSTTDSPGHTITGTTTTTLYGPHTHSSVSTPSSSSESSTTSNSSIESSSLPHTSVSSTPESSITPSSNTISSSPTSDFSSVQSSSIMESSSVVASSSVINSSSIVDSSSSSASSLPSSMPSSLPSSMSSSLSSSMSSSLSSSLSSSLSSSMSSSMSSLFIIPPPYTTTRSSGSSIIDTEIVSFYSTTDSPGHTITGTTTTTLYGPHTHSSVSTPSSSSESSTTSNSSIESSSLPHTSVSSTPESSITPSSNTISSSPTSDFSSVQSSSIMESSSVVASSSATQSSSVINSSSIVDSSSSSASSLPSSMPSSLPSSLSSSLSSSLSSSMSSSMSSLFIIPPPYTTTRSSGSSIIDTEIVSFYSTTDSPGHTITGTTTTTLYESSIYSSSSSTIQESELSNTSRTTMTSNSSVSISSTSSRSSFSNTKSSTIVISQSASLPDSKTDIILSTSSNIGYSSRSLLSDLGTSISDSDIHHSVLHSTESYSSNESGTNPFTSIASLSNFIPESSSHTSTALGSENSVISSDILTTMSHPVATNSGDKPTTPKRSEQVSTTMTSSGPTPDTSSFDTDGMSAYSRPEFTTNSLEVNKSSTSQLGNNKQTFSNLQLESTRPHSENEVDNNTRLLQSIQQSSTYGTNNVNPLSPTGSISIPLTEDGQGDNNNWNSPATNDLCTQISFNLTATTITVTDRITITDSIHDISSEVITSYIYQTIVDQKTVTQTVDGKSLANKMSSIPKPSSRSLIQPQPPVAIELQEGAASTSRVSLVSLFISIILVLL",glycan array binding signal (z-score),[1],-0.292
same,glycan array binding signal (z-score),[2],0.452
same,glycan array binding signal (z-score),[3],-0.074
same,glycan array binding signal (z-score),[4],-0.665
same,glycan array binding signal (z-score),[5],-0.796
same,glycan array binding signal (z-score),[6],-1.1
same,glycan array binding signal (z-score),[7],-0.013
same,glycan array binding signal (z-score),[8],0.922
same,glycan array binding signal (z-score),[9],0.182
same,glycan array binding signal (z-score),[10],-1.13
same,glycan array binding signal (z-score),Gal(b1-4)GlcNAc6P,-0.775
same,glycan array binding signal (z-score),Gal(b1-6)Gal,-1.2
same,glycan array binding signal (z-score),Gal3S(b1-3)GalNAc,-0.471
same,glycan array binding signal (z-score),Gal3S(b1-3)GlcNAc,-0.178
same,glycan array binding signal (z-score),[11],0.656
